Entries after “also recorded” stand apart in the source; their conditions may differ. At least one structure is not confirmed: it was looked up by name or label, or the drawing left a doubt.
Columns and labels:
Format in all cases: cell-based
human TLR7 = biological target: T1, human TLR7 (Homo sapiens, UniProt Q9NYK1); experiment: hTLR7 agonist reporter assay in HEK293 cells (NFκB-SEAP); settings: for hTLR7/8 ratio: hTLR7 ED50 over hTLR8 ED50
T1 construct: host or cells: HEK293
T1 sequence (Q9NYK1 27-1049): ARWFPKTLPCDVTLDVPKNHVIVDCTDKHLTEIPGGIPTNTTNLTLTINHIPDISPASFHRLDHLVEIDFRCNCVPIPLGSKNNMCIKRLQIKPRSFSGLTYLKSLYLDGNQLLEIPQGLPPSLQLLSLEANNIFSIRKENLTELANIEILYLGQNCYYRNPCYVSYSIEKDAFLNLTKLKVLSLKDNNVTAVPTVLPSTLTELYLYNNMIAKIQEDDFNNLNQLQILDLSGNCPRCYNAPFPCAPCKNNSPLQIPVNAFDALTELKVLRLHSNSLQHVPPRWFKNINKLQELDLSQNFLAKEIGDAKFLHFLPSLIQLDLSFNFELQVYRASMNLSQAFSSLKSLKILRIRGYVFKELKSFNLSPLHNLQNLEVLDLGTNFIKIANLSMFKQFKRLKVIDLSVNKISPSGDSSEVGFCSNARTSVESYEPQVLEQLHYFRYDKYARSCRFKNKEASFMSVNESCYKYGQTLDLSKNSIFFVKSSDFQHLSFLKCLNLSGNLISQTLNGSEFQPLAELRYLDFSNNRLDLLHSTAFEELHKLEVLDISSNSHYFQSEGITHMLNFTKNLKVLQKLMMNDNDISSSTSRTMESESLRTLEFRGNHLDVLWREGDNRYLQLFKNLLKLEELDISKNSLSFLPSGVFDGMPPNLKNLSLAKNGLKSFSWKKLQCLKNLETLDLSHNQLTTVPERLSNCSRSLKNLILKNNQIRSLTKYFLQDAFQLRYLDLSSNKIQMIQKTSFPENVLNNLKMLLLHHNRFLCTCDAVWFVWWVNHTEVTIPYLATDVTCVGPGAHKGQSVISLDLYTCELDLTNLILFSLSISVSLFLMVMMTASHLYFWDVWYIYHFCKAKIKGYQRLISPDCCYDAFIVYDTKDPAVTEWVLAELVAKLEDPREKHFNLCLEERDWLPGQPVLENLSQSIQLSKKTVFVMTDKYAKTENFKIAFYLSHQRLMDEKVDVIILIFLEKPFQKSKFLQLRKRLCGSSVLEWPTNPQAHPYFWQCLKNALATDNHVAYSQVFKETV
Experimental: (§1) Assay for hTLR7 and hTLR8 Agonist Activity in HEK-293 Cells
(§2) Determination of TLR agonist activity was performed using the HEK293 […]. This assay measures TLR7 and TLR8 selectivity and potency of the compounds tested. HEK293 cells expressing human TLR7 or TLR8 and NFκB responsive Secreted Embryonic Alkaline Phosphatase (SEAP) reporter gene were obtained from InvivoGen (San Diego, Calif.). These cells were maintained in culture media of Dulbecco's Modified Eagle Medium (DMEM) (Invitrogen, Grand Island, N.Y.), 10% Fetal Bovine Serum (FBS) (Sigma, St. Louis, Mo.) and selection antibiotics (Invitrogen, and Invivogen). HEK293 stably transfected with human TLR7 (hTLR7) or human TLR8 (hTLR8) were stimulated for 24 h with aqueous formulations of test compounds and culture supernatants were analyzed for NFκB activation using the colorimetric SEAP detection kit QuantBlue (InvivoGen).

[1] = test system: human peripheral blood mononuclear cells (hPBMCs); experiment: TNF-α induction in hPBMCs; settings: 24 h
Experimental: (§3) Assays to Measure Cytokine Induction
(§4) Test compounds were evaluated for cytokine induction in human peripheral blood mononuclear cells (hPBMCs).
(§5) Primary human PBMCs were isolated from fresh blood from healthy donors via Ficoll gradient separation and plated at 0.5×10^6 cells/well in 96-well tissue culture plates (RPMI-1640 plus 10% FBS). hPBMCs were maintained with RPMI-1640 culture media (Invitrogen, Grand Island, N.Y.), antibiotics (Invitrogen) and 10% FBS (Sigma).
(§6) Incubation and Assays for IFN-γ, IFN-α and TNF-α
(§7) hPBMCs were stimulated for 24 h with aqueous formulations of test compounds. Culture supernatants were analyzed for TNF-α and IFN-γ induction using multiplex kits (FluoroKine multiplex kits from R&D Systems, Minneapolis, Minn.) and for IFN-α induction using human IFN-α VeriKine ELISA kit (Pestka Biomedical Laboratories, Inc., Piscataway, N.J.).

human TLR8 = biological target: T2, human TLR8 (Homo sapiens, UniProt Q9NR97); experiment: hTLR8 agonist reporter assay in HEK293 cells (NFκB-SEAP)
T2 construct: host or cells: HEK293
T2 sequence (Q9NR97 27-1041): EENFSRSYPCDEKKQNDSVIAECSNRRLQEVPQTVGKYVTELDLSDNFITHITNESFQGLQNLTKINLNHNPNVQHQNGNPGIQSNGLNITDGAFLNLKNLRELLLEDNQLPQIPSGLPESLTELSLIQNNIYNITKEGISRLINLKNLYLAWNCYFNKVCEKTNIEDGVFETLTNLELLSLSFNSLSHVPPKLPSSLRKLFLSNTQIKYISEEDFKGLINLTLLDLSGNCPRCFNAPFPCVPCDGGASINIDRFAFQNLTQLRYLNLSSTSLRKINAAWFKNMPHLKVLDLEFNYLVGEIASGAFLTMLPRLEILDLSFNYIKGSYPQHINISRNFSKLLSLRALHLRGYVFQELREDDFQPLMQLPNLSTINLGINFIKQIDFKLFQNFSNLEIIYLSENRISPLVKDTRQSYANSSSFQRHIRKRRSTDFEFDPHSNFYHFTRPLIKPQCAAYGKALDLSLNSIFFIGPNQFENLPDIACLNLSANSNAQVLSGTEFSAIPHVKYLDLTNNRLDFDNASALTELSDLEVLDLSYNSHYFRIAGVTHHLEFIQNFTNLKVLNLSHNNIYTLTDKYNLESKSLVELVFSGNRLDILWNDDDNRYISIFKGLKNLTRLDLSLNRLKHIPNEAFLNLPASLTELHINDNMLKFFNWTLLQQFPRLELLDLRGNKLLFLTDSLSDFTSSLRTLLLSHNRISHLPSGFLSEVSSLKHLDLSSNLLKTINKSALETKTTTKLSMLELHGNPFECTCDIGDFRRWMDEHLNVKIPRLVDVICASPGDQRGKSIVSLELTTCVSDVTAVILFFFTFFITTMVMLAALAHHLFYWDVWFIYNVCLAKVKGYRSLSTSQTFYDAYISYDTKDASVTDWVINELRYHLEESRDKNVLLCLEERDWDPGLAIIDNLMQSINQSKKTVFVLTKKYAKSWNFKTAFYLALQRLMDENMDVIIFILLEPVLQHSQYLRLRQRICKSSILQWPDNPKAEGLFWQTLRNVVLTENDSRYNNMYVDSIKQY
Experimental: as §1, §2

[2] = test system: human peripheral blood mononuclear cells (hPBMCs); experiment: IFN-γ induction in hPBMCs; settings: 24 h, FIG. 11, another occasion
Experimental: as §3, §4, §5, §6, §7

[3] = test system: human peripheral blood mononuclear cells (hPBMCs); experiment: IFN-α induction in hPBMCs; settings: 24 h
Experimental: as §3, §4, §5, §6, §7

CCCCCCCCCCCCCCCC(=O)OC[C@H](COCCOCCOCCOP(=O)(O)OCCOc1ccc2c(c1)nc(N)c1nc(CCCC)n(CCO)c12)OC(=O)CCCCCCCCCCCCCCC [Example 2]
relative potency hTLR8 versus hTLR7, in words (human TLR7; Table 4): significantly more potent as an agonist of hTLR8 than hTLR7
hTLR7/8 ratio (human TLR7; Table 4): 7.5
TNF-α induction, in words ([1]; FIG. 17, another occasion): weaker inducer of TNF-α

CCCCc1nc2c(N)nc3cc(OCCOP(=O)(O)OCCOCCOCCO[C@H]4CC[C@@]5(C)C(=CC[C@H]6[C@@H]7CC[C@H]([C@H](C)CCCC(C)C)[C@@]7(C)CC[C@@H]65)C4)ccc3c2n1CCO [Example 4]
hTLR7 agonist activity, in words (human TLR7; text on Table 2, FIG. 3): did not agonise hTLR7; also recorded: not active in the HEK hTLR7 reporter assay
hTLR8 agonist activity, in words (human TLR8; text on Table 2, FIG. 4): weaker agonist of hTLR8
IFN-γ induction, in words [2]: did not induce IFN-γ
IFN-α induction, in words ([3]; FIG. 12, another occasion): very potent at inducing IFN-α at a higher dose, being significantly more potent than Examples 1 and 3
TNF-α induction, in words ([1]; FIG. 13): not significantly effective at inducing TNF-α

CCCCCCCCCCCCCCCC(=O)OC[C@H](COP(=O)(O)OCCOc1ccc2c(c1)nc(N)c1nc(CCCC)n(CCO)c12)OC(=O)CCCCCCCCCCCCCCC [Example 7]
hTLR7/8 ratio (human TLR7; Table 4): 3.8
hTLR7 agonist activity, in words (human TLR7; text on Table 4, FIG. 7): agonist of hTLR7 and hTLR8 but less potent than Examples 1 and 2, particularly at hTLR8
hTLR8 agonist activity, in words (human TLR8; text on Table 4, FIG. 8): agonist of hTLR7 and hTLR8 but less potent than Examples 1 and 2, particularly at hTLR8
IFN-α induction, in words ([3]; FIG. 16, another occasion): good activity in inducing IFN-α
